# This is one part of the list. This data set is noisy: repeats of one test often differ as much as different tests do.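 ATM8/balancer (normal ATM) heterozygous flies were crossed on treated food; parents laid eggs 5–6 days, offspring developed ~12 days, so parents and larvae ingested compound. Readout: fraction of emerged adults homozygous for ATM8 versus 2% DMSO controls. Compounds were neutral at 10–20% homozygotes, harmful below 10%, helpful above 20%.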
# System: Drosophila melanogaster ATM8 (temperature-sensitive ATM allele)
# Test: fraction of eclosed F1 progeny that are homozygous ATM8 (rescue of developmental lethality); higher = more rescue of ATM8 developmental lethality; extreme values may be limits of the assay
# Conditions: compound concentration applied to food 0.2 mM; 21 °C
row,SMILES,fraction of eclosed F1 progeny that are homozygous ATM8
1,C=C1CCC(C2CC(=O)OC2=O)C(=O)CCC2C1CC2(C)C (stereo unspecified),0.214
2,C=CCN=C=S,0.107
3,Nc1c2ccccc2nc2ccccc12,0.118
4,CN1CCC(=C2c3ccccc3Sc3ccccc32)CC1,0.145
5,CC(Cl)(Cl)C(=O)O,0.0571
6,CC(C)CC(N(C)C)C1(c2ccc(Cl)cc2)CCC1 (stereo unspecified),0.257
7,N[C@@H](Cc1cc(I)c(Oc2ccc(O)c(I)c2)c(I)c1)C(=O)O [LIOTHYRONINE (L- isomer) SODIUM],0.231
8,N[C@@H](Cc1cc(I)c(Oc2ccc(O)c(I)c2)c(I)c1)C(=O)O,0.111
9,NC[C@@H]1O[C@@H](O[C@H]2[C@H](O)[C@@H](O[C@H]3O[C@H](CO)[C@@H](O)[C@H](N)[C@H]3O)[C@H](N)C[C@@H]2N)[C@@H](O)[C@H](O)[C@H]1O,0
10,CC1CC(OC(=O)c2ccccc2O)CC(C)(C)C1 (stereo unspecified),0.105
11,C[C@H](CCC(=O)O)[C@H]1CC[C@H]2[C@@H]3[C@@H](O)C[C@@H]4C[C@H](O)CC[C@]4(C)[C@H]3CC[C@]12C,0.0952
12,COC(=O)c1cc(OC)c(=O)c2c(OC)c(OC)ccc2c1,0.154
13,C[C@]12CC[C@@H]3c4ccc(OC(=O)c5ccccc5)cc4CC[C@H]3[C@@H]1CC[C@@H]2O,0.235
14,O=C([O-])c1ccccc1-c1c2cc(Br)c(=O)cc-2oc2[c]([Hg+])c([O-])c(Br)cc12.[Na+].[Na+].[OH-],0.176
15,CN1CCN(C(c2ccccc2)c2ccccc2)CC1,0.0312
16,COC(=O)C1=CO[C@@H](C)[C@H]2CN3CC[C@]4(C(=O)Nc5ccccc54)[C@@H]3C[C@H]12,0.0968
17,N#C/C(=C\c1cccc(O)c1)C(=O)O [alpha-CYANO-3-HYDROXYCINNAMIC ACID],0.1
18,OCCN(CCO)c1nc(N2CCCCC2)c2nc(N(CCO)CCO)nc(N3CCCCC3)c2n1,0.146
19,CC(=O)O[C@@H]1C[C@@]2(C)[C@H](c3ccoc3)C[C@H]3O[C@]32[C@]2(C)C(=O)C(O)=C3C(C)(C)C(=O)C=C[C@]3(C)[C@@H]12,0.117
20,O=C(O)c1ccccc1C(=O)Nc1ccc(S(=O)(=O)Nc2nccs2)cc1,0.143
21,C[N+](C)(C)CC(=O)O,0.093
22,C#C[C@]1(O)CC[C@H]2[C@@H]3CCC4=CC(=O)CC[C@]4(C)[C@H]3CC[C@@]21C,0.0588
23,CC(C)[N+](C)(CCC(C(N)=O)(c1ccccc1)c1ccccc1)C(C)C,0.143
24,COc1ccc(C(=O)c2ccccc2)c(O)c1O,0.0926
25,Cc1c(-c2cnccn2)ssc1=S,0.125
26,C(=C\c1ccccc1)/CN1CCN(C(c2ccccc2)c2ccccc2)CC1,0.036

# As entered above:
# C=CCN=C=S – fraction of eclosed F1 progeny that are homozygous ATM8: 0.107
# COC(=O)C1=CO[C@@H](C)[C@H]2CN3CC[C@]4(C(=O)Nc5ccccc54)[C@@H]3C[C@H]12 – fraction of eclosed F1 progeny that are homozygous ATM8: 0.0968

# — the supplement of paper PMC5770031
